Measured values as given in US6383276B1, “Azomethine compound and oily magenta ink” (Fuji Photo Film Co., Ltd., priority 1999, dated 2002).
Some of these results come from one statement about several compounds together. For at least one compound, name, drawing or mass did not settle the structure.

Assay: Solubility in ethyl acetate on preparing oily magenta ink (Example 4)
Type: physicochemical
Conditions: dissolved in ethyl acetate

solubility, more than 10 wt. %:
CCCCCCCCCCCCCCOC(=O)CCC(=O)Nc1ccc(-c2nc3n(n2)N=C(C(C)(C)C)C3=Nc2ccc(N(CCC#N)CCCC)cc2)cc1 [Ia-12]
CCCCCCC(Oc1ccc(C(C)(C)CC)cc1C(C)(C)CC)C(=O)NCC(C)c1nc2n(n1)N=C(C)C2=Nc1ccc(N(CCO)CCC#N)cc1C (stereo not drawn) [Ia-6]
CCCCCCC(Oc1ccc(C(C)(C)CC)cc1C(C)(C)CC)C(=O)Nc1ccc(-c2nc3n(n2)N=C(C(C)(C)C)C3=Nc2ccc(N(CC)CCC#N)cc2)cc1 (stereo not drawn) [Ia-13]
CCCCCCC(Oc1ccc(C(C)(C)CC)cc1C(C)(C)CC)C(=O)NCC(C)c1nc2n(n1)N=C(C)C2=Nc1ccc(N(CC)CCC#N)cc1 (stereo not drawn) [Ia-1]
CCCCCCC(Oc1ccc(C(C)(C)CC)cc1C(C)(C)CC)C(=O)Nc1ccc(-c2nc3n(n2)N=C(C(C)(C)C)C3=Nc2ccc(N(CCO)CCC#N)cc2C)cc1 (stereo not drawn) [Ia-15]
CCCCCCC(Oc1ccc(C(C)(C)CC)cc1C(C)(C)CC)C(=O)Nc1ccc(-c2nc3n(n2)N=C(C(C)(C)C)C3=Nc2ccc(N(CCC#N)CCCC)cc2)cc1 (stereo not drawn) [Ia-14]
